The record followed here is paper PMC10767194 (The Journal of Biological Chemistry, 2023).

Sequences of proteins named here, by UniProt entry; tags and fusion partners are left off. A change or cut given only in a name is not applied to a line headed by its entry. A line that says so, or that is headed by a name, gives the form on record, which may keep a tag or linker. Residues count along the entry.
UniProt P11802: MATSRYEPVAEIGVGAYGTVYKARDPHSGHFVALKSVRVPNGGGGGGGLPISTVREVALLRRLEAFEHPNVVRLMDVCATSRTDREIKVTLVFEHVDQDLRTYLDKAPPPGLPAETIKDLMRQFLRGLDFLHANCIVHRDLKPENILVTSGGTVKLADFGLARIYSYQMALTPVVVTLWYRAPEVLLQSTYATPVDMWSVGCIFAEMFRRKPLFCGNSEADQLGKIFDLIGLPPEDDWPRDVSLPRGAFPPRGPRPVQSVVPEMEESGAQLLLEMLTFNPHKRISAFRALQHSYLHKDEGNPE
Cdk12 kinase domain (residues 714–1063), WT, not coexpressed with CAK1 (Q9NYV4, residues 714-1063): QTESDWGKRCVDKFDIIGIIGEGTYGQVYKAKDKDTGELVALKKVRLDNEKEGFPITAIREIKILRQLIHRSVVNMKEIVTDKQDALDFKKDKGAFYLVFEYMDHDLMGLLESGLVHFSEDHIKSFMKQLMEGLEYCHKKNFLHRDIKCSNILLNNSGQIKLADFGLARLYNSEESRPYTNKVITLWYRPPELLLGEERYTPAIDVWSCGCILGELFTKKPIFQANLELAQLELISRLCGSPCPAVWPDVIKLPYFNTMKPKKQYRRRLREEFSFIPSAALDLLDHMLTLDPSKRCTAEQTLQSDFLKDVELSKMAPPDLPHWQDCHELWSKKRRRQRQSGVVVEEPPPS
Cdk12 D859N kinase domain (residues 714–1063), kinase dead mutant (Q9NYV4, form named): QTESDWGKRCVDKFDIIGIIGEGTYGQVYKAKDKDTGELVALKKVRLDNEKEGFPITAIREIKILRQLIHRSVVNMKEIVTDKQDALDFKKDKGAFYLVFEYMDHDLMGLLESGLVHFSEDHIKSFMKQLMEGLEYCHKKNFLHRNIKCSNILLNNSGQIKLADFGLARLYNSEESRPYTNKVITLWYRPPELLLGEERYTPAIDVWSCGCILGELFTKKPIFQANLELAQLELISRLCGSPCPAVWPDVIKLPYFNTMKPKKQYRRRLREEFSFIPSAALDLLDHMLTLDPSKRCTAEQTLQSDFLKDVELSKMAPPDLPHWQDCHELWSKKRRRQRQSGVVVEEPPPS
UniProt Q14004, residues 694-1039: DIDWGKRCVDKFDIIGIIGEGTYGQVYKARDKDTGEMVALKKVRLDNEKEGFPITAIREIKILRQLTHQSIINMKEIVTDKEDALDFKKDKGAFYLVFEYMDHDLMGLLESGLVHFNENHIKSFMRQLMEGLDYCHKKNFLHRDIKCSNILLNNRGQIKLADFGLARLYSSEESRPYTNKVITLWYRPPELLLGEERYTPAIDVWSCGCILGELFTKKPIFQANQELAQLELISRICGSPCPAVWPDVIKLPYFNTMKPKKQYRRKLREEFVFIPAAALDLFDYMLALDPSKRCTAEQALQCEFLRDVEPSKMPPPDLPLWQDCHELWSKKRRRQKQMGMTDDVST
UniProt Q15131: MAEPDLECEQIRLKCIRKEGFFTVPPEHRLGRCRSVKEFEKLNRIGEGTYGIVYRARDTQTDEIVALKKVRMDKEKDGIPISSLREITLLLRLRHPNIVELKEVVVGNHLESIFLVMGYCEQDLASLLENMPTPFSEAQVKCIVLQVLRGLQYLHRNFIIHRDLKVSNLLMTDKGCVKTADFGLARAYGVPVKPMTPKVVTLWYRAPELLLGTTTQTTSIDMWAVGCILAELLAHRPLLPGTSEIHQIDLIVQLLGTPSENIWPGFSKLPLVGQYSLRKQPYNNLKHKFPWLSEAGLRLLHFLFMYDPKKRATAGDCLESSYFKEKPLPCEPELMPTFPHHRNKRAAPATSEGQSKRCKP
UniProt P30281: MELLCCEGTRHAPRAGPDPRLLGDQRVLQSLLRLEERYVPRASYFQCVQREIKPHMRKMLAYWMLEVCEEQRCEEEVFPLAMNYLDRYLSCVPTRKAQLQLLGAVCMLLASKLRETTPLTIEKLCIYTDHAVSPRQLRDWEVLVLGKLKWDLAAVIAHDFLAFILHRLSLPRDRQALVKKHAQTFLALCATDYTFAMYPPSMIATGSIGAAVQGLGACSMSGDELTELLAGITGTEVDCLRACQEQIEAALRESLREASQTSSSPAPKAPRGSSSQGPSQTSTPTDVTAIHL

Assay [1] deals with Cdk4, full-length, WT (residues 1–303) (human) (UniProt P11802). Nature of the assay: SEC; co-purification of Cdk4 and cyclin D3 coexpressed in Sf9: GST-affinity chromatography, TEV-mediated tag removal, SEC, as described (ref. 53).
Assay [2] addresses Cdk12 kinase domain (residues 714–1063), WT, not coexpressed with CAK1 (human) (UniProt Q9NYV4). Nature of the assay: SEC; co-purification of coexpressed kinase and CycK from Sf9: GSTrap, TEV digest, Superdex 200 in 20 mM Hepes pH 7.8, 400 mM NaCl, 1 mM TCEP, 5% glycerol; fractions with the complex monitored by SDS-PAGE.
Assay [3] concerns the target Cdk12 D859N kinase domain (residues 714–1063), kinase dead mutant (human) (UniProt Q9NYV4). The description is as above.
Assay [4] concerns the target Cdk13 kinase domain (residues 694–1039) (human) (UniProt Q14004). The assay is described as above.
In assay [5] the target is Cdk10, full-length, WT (residues 1–360) (human) (UniProt Q15131). Nature of the assay: SEC; co-purification of Cdk10 and CycQ coexpressed in Sf9: affinity chromatography and gel filtration, as described (ref. 54).

No constants are given. Whether binding was seen depends on the method and setting. Some binding calls cover weakened binding; strength is not graded here.

As to “cyclin D3, full-length, WT (residues 1–292) (from UniProt P30281 1-292)”, in assay [1], the binding result is “binds”.

B1: cyclin K cyclin box domains (residues 1–267) (domain or fragment, human, UniProt O75909 1-267, looked up)
chain: MKENKENSSPSVTSANLDHTKPCWYWDKKDLAHTPSQLEGLDPATEARYRREGARFIFDVGTRLGLHYDTLATGIIYFHRFYMFHSFKQFPRYVTGACCLFLAGKVEETPKKCKDIIKTARSLLNDVQFGQFGDDPKEEVMVLERILLQTIKFDLQVEHPYQFLLKYAKQLKGDKNKIQKLVQMAWTFVNDSLCTTLSLQWEPEIIAVAVMYLAGRLCKFEIQEWTSKPMYRRWWEQFVQDVPVDVLEDICHQILDLYSQGKQQMPH
notes: cyclin box domains of human cyclin K, residues 1–267, UniProt O75909; synthetic codon-optimised gene; The final model of 8P81 holds residues 20 to 260 of CycK; also called CycK; not shown: GST, N-terminal, cleaved
For B1, the binding result in assay [2], in assay [3] and in assay [4] was “binds” in each case.

B2: cyclin Q, full-length, WT (residues 1–248) (protein, UniProt Q8N1B3 1-248)
chain: MEAPEGGGGGPAARGPEGQPAPEARVHFRVARFIMEAGVKLGMRSIPIATACTIYHKFFCETNLDAYDPYLIAMSSIYLAGKVEEQHLRTRDIINVSNRYFNPSGEPLELDSRFWELRDSIVQCELLMLRVLRFQVSFQHPHKYLLHYLVSLQNWLNRHSWQRTPVAVTAWALLRDSYHGALCLRFQAQHIAVAVLYLALQVYGVEVPAEVEAEKPWWQVFNDDLTKPIIDNIVSDLIQIYTMDTEIP
Turning to B2, the binding entry in assay [5] was “binds”.
